# Experimental data as given in the supplement of paper PMC12282887.
# ± gives the standard deviation of the averaged measurements. Values are raw readings; no control value is given beside them.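 Maximum concentrations were near the MIC for antimicrobials, 500 µM for most other compounds, and as high as 1 mM for known inducer-like compounds. Deletion strains began with a tenfold smaller inoculum, and wells with growth under 10% of the overall median counted as non-growing.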
# Test system: Escherichia coli BW25113
# Assay: growth (OD600 area under curve, 8 h) (OD600 x h); higher = more growth
# Protocol: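 E. coli BW25113 reporter strains (wild type, ΔmarA, ΔsoxS, Δrob, each carrying one of 8 lux reporter plasmids) were grown in 40 µl LB in 384-well plates at 37°C, 800 rpm, with each compound at 4 two-fold concentrations, in biological duplicates. Growth is the baseline-corrected OD600 area under the curve over 8 h (0-8 h WT, 1-9 h deletion strains).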
smiles,measurement,setting,value
Nc1ccc(C(=O)O)cc1 [4-Aminobenzoic acid],growth,"8.6 µg/ml, genetic background: wild type, reporter plasmid: EVC",2.23 ± 0.19
same,growth,"8.6 µg/ml, genetic background: wild type, reporter plasmid: acrABp",3.05 ± 0.23
same,growth,"8.6 µg/ml, genetic background: wild type, reporter plasmid: marRABp",3 ± 0.3
same,growth,"8.6 µg/ml, genetic background: wild type, reporter plasmid: micFp",2.86 ± 0.26
same,growth,"8.6 µg/ml, genetic background: wild type, reporter plasmid: ompFp",2.79 ± 0.37
same,growth,"8.6 µg/ml, genetic background: wild type, reporter plasmid: robp",2.93 ± 0.12
same,growth,"8.6 µg/ml, genetic background: wild type, reporter plasmid: soxSp",2.6 ± 0.15
same,growth,"8.6 µg/ml, genetic background: wild type, reporter plasmid: tolCp",2.59 ± 0.035
same,growth,"8.6 µg/ml, genetic background: ΔmarA, reporter plasmid: EVC",3.01 ± 0.35
same,growth,"8.6 µg/ml, genetic background: ΔmarA, reporter plasmid: acrABp",3.78 ± 0.43
same,growth,"8.6 µg/ml, genetic background: ΔmarA, reporter plasmid: marRABp",3.04 ± 0.32
same,growth,"8.6 µg/ml, genetic background: ΔmarA, reporter plasmid: micFp",2.74 ± 0.47
same,growth,"8.6 µg/ml, genetic background: ΔmarA, reporter plasmid: ompFp",3.24 ± 0.64
same,growth,"8.6 µg/ml, genetic background: ΔmarA, reporter plasmid: robp",3.53 ± 0.77
same,growth,"8.6 µg/ml, genetic background: ΔmarA, reporter plasmid: soxSp",2.42 ± 0.33
same,growth,"8.6 µg/ml, genetic background: ΔmarA, reporter plasmid: tolCp",2.59 ± 0.29
same,growth,"8.6 µg/ml, genetic background: Δrob, reporter plasmid: EVC",2.32 ± 0.69
same,growth,"8.6 µg/ml, genetic background: Δrob, reporter plasmid: acrABp",2.99 ± 0.15
same,growth,"8.6 µg/ml, genetic background: Δrob, reporter plasmid: marRABp",2.95 ± 0.091
same,growth,"8.6 µg/ml, genetic background: Δrob, reporter plasmid: micFp",2.69 ± 0.24
same,growth,"8.6 µg/ml, genetic background: Δrob, reporter plasmid: ompFp",2.37 ± 0.62
same,growth,"8.6 µg/ml, genetic background: Δrob, reporter plasmid: robp",2.46 ± 0.12
same,growth,"8.6 µg/ml, genetic background: Δrob, reporter plasmid: soxSp",2.39 ± 0.055
same,growth,"8.6 µg/ml, genetic background: Δrob, reporter plasmid: tolCp",2.56 ± 0.21
same,growth,"8.6 µg/ml, genetic background: ΔsoxS, reporter plasmid: EVC",2.54 ± 0.086
same,growth,"8.6 µg/ml, genetic background: ΔsoxS, reporter plasmid: acrABp",2.63 ± 0.96
same,growth,"8.6 µg/ml, genetic background: ΔsoxS, reporter plasmid: marRABp",3.05 ± 0.49
same,growth,"8.6 µg/ml, genetic background: ΔsoxS, reporter plasmid: micFp",2.12 ± 0.41
same,growth,"8.6 µg/ml, genetic background: ΔsoxS, reporter plasmid: ompFp",2.52 ± 0.53
same,growth,"8.6 µg/ml, genetic background: ΔsoxS, reporter plasmid: robp",3.06 ± 0.083
same,growth,"8.6 µg/ml, genetic background: ΔsoxS, reporter plasmid: soxSp",2.72 ± 0.59
same,growth,"8.6 µg/ml, genetic background: ΔsoxS, reporter plasmid: tolCp",2.5365 ± 0.0016
same,growth,"17.1 µg/ml, genetic background: wild type, reporter plasmid: EVC",2.18 ± 0.2
same,growth,"17.1 µg/ml, genetic background: wild type, reporter plasmid: acrABp",2.8 ± 0.14
same,growth,"17.1 µg/ml, genetic background: wild type, reporter plasmid: marRABp",2.85 ± 0.019
same,growth,"17.1 µg/ml, genetic background: wild type, reporter plasmid: micFp",2.82 ± 0.3
same,growth,"17.1 µg/ml, genetic background: wild type, reporter plasmid: ompFp",2.67 ± 0.34
same,growth,"17.1 µg/ml, genetic background: wild type, reporter plasmid: robp",2.82 ± 0.045
same,growth,"17.1 µg/ml, genetic background: wild type, reporter plasmid: soxSp",2.48 ± 0.15
same,growth,"17.1 µg/ml, genetic background: wild type, reporter plasmid: tolCp",2.48 ± 0.058
same,growth,"17.1 µg/ml, genetic background: ΔmarA, reporter plasmid: EVC",2.66 ± 0.17
same,growth,"17.1 µg/ml, genetic background: ΔmarA, reporter plasmid: acrABp",3.68 ± 0.5
same,growth,"17.1 µg/ml, genetic background: ΔmarA, reporter plasmid: marRABp",3.01 ± 0.19
same,growth,"17.1 µg/ml, genetic background: ΔmarA, reporter plasmid: micFp",2.53 ± 0.2
same,growth,"17.1 µg/ml, genetic background: ΔmarA, reporter plasmid: ompFp",3.04 ± 0.89
same,growth,"17.1 µg/ml, genetic background: ΔmarA, reporter plasmid: robp",3 ± 0.37
same,growth,"17.1 µg/ml, genetic background: ΔmarA, reporter plasmid: soxSp",2.14 ± 0.47
same,growth,"17.1 µg/ml, genetic background: ΔmarA, reporter plasmid: tolCp",2.49 ± 0.17
same,growth,"17.1 µg/ml, genetic background: Δrob, reporter plasmid: EVC",2.5 ± 0.49
same,growth,"17.1 µg/ml, genetic background: Δrob, reporter plasmid: acrABp",2.82 ± 0.14
same,growth,"17.1 µg/ml, genetic background: Δrob, reporter plasmid: marRABp",2.83 ± 0.24
same,growth,"17.1 µg/ml, genetic background: Δrob, reporter plasmid: micFp",2.72 ± 0.25
same,growth,"17.1 µg/ml, genetic background: Δrob, reporter plasmid: ompFp",2.15 ± 0.68
same,growth,"17.1 µg/ml, genetic background: Δrob, reporter plasmid: robp",2.35 ± 0.18
same,growth,"17.1 µg/ml, genetic background: Δrob, reporter plasmid: soxSp",2.28 ± 0.15
same,growth,"17.1 µg/ml, genetic background: Δrob, reporter plasmid: tolCp",2.56 ± 0.41
same,growth,"17.1 µg/ml, genetic background: ΔsoxS, reporter plasmid: EVC",2.56 ± 0.33
same,growth,"17.1 µg/ml, genetic background: ΔsoxS, reporter plasmid: acrABp",2.65 ± 0.94
same,growth,"17.1 µg/ml, genetic background: ΔsoxS, reporter plasmid: marRABp",3.03 ± 0.53
same,growth,"17.1 µg/ml, genetic background: ΔsoxS, reporter plasmid: micFp",2.02 ± 0.15
same,growth,"17.1 µg/ml, genetic background: ΔsoxS, reporter plasmid: ompFp",2.37 ± 0.7
same,growth,"17.1 µg/ml, genetic background: ΔsoxS, reporter plasmid: robp",2.8 ± 0.42
same,growth,"17.1 µg/ml, genetic background: ΔsoxS, reporter plasmid: soxSp",2.56 ± 0.41
same,growth,"17.1 µg/ml, genetic background: ΔsoxS, reporter plasmid: tolCp",2.66 ± 0.15
same,growth,"34.3 µg/ml, genetic background: wild type, reporter plasmid: EVC",1.83 ± 0.13
same,growth,"34.3 µg/ml, genetic background: wild type, reporter plasmid: acrABp",3.29 ± 0.28
same,growth,"34.3 µg/ml, genetic background: wild type, reporter plasmid: marRABp",3.26 ± 0.22
same,growth,"34.3 µg/ml, genetic background: wild type, reporter plasmid: micFp",2.64 ± 0.59
same,growth,"34.3 µg/ml, genetic background: wild type, reporter plasmid: ompFp",3.02 ± 0.3
same,growth,"34.3 µg/ml, genetic background: wild type, reporter plasmid: robp",3.13 ± 0.068
same,growth,"34.3 µg/ml, genetic background: wild type, reporter plasmid: soxSp",2.38 ± 0.065
same,growth,"34.3 µg/ml, genetic background: wild type, reporter plasmid: tolCp",2.46 ± 0.26
same,growth,"34.3 µg/ml, genetic background: ΔmarA, reporter plasmid: EVC",3.47 ± 0.58
same,growth,"34.3 µg/ml, genetic background: ΔmarA, reporter plasmid: acrABp",4.52 ± 0.6
same,growth,"34.3 µg/ml, genetic background: ΔmarA, reporter plasmid: marRABp",4.16 ± 0.47
same,growth,"34.3 µg/ml, genetic background: ΔmarA, reporter plasmid: micFp",2.72 ± 0.21
same,growth,"34.3 µg/ml, genetic background: ΔmarA, reporter plasmid: ompFp",3.612 ± 0.018
same,growth,"34.3 µg/ml, genetic background: ΔmarA, reporter plasmid: robp",4.32 ± 0.3
same,growth,"34.3 µg/ml, genetic background: ΔmarA, reporter plasmid: soxSp",2.44 ± 0.41
same,growth,"34.3 µg/ml, genetic background: ΔmarA, reporter plasmid: tolCp",2.92 ± 0.41
same,growth,"34.3 µg/ml, genetic background: Δrob, reporter plasmid: EVC",2.23 ± 0.089
same,growth,"34.3 µg/ml, genetic background: Δrob, reporter plasmid: acrABp",3.29 ± 0.31
same,growth,"34.3 µg/ml, genetic background: Δrob, reporter plasmid: marRABp",3.36 ± 0.6
same,growth,"34.3 µg/ml, genetic background: Δrob, reporter plasmid: micFp",2.6 ± 0.73
same,growth,"34.3 µg/ml, genetic background: Δrob, reporter plasmid: ompFp",2.87 ± 0.12
same,growth,"34.3 µg/ml, genetic background: Δrob, reporter plasmid: robp",2.76 ± 0.67
same,growth,"34.3 µg/ml, genetic background: Δrob, reporter plasmid: soxSp",2.04 ± 0.37
same,growth,"34.3 µg/ml, genetic background: Δrob, reporter plasmid: tolCp",2.39 ± 0.6
same,growth,"34.3 µg/ml, genetic background: ΔsoxS, reporter plasmid: EVC",2.5 ± 0.12
same,growth,"34.3 µg/ml, genetic background: ΔsoxS, reporter plasmid: acrABp",2.94 ± 1.3
same,growth,"34.3 µg/ml, genetic background: ΔsoxS, reporter plasmid: marRABp",3.25 ± 0.54
same,growth,"34.3 µg/ml, genetic background: ΔsoxS, reporter plasmid: micFp",1.9 ± 0.2
same,growth,"34.3 µg/ml, genetic background: ΔsoxS, reporter plasmid: ompFp",2.5 ± 0.73
same,growth,"34.3 µg/ml, genetic background: ΔsoxS, reporter plasmid: robp",3.13 ± 0.36
same,growth,"34.3 µg/ml, genetic background: ΔsoxS, reporter plasmid: soxSp",2.73 ± 1.1
same,growth,"34.3 µg/ml, genetic background: ΔsoxS, reporter plasmid: tolCp",2.35 ± 0.16
same,growth,"68.6 µg/ml, genetic background: wild type, reporter plasmid: EVC",1.79 ± 0.11
same,growth,"68.6 µg/ml, genetic background: wild type, reporter plasmid: acrABp",2.89 ± 0.097
same,growth,"68.6 µg/ml, genetic background: wild type, reporter plasmid: marRABp",2.94 ± 0.24
same,growth,"68.6 µg/ml, genetic background: wild type, reporter plasmid: micFp",2.38 ± 0.38
same,growth,"68.6 µg/ml, genetic background: wild type, reporter plasmid: ompFp",2.425 ± 0.0078
same,growth,"68.6 µg/ml, genetic background: wild type, reporter plasmid: robp",2.62 ± 0.16
same,growth,"68.6 µg/ml, genetic background: wild type, reporter plasmid: soxSp",2.159 ± 0.015
same,growth,"68.6 µg/ml, genetic background: wild type, reporter plasmid: tolCp",2.319 ± 0.016
same,growth,"68.6 µg/ml, genetic background: ΔmarA, reporter plasmid: EVC",3.02 ± 0.12
same,growth,"68.6 µg/ml, genetic background: ΔmarA, reporter plasmid: acrABp",3.81 ± 0.44
same,growth,"68.6 µg/ml, genetic background: ΔmarA, reporter plasmid: marRABp",3.2 ± 0.28
same,growth,"68.6 µg/ml, genetic background: ΔmarA, reporter plasmid: micFp",2.553 ± 0.01
same,growth,"68.6 µg/ml, genetic background: ΔmarA, reporter plasmid: ompFp",2.92 ± 0.41
same,growth,"68.6 µg/ml, genetic background: ΔmarA, reporter plasmid: robp",3.73 ± 0.53
same,growth,"68.6 µg/ml, genetic background: ΔmarA, reporter plasmid: soxSp",2.06 ± 0.35
same,growth,"68.6 µg/ml, genetic background: ΔmarA, reporter plasmid: tolCp",2.5 ± 0.054
same,growth,"68.6 µg/ml, genetic background: Δrob, reporter plasmid: EVC",2.41 ± 0.34
same,growth,"68.6 µg/ml, genetic background: Δrob, reporter plasmid: acrABp",2.8 ± 0.41
same,growth,"68.6 µg/ml, genetic background: Δrob, reporter plasmid: marRABp",2.97 ± 0.81
same,growth,"68.6 µg/ml, genetic background: Δrob, reporter plasmid: micFp",2.26 ± 0.34
same,growth,"68.6 µg/ml, genetic background: Δrob, reporter plasmid: ompFp",2.08 ± 0.19
same,growth,"68.6 µg/ml, genetic background: Δrob, reporter plasmid: robp",2.32 ± 0.37
same,growth,"68.6 µg/ml, genetic background: Δrob, reporter plasmid: soxSp",1.85 ± 0.013
same,growth,"68.6 µg/ml, genetic background: Δrob, reporter plasmid: tolCp",2.24 ± 0.41
same,growth,"68.6 µg/ml, genetic background: ΔsoxS, reporter plasmid: EVC",2.38 ± 0.071
same,growth,"68.6 µg/ml, genetic background: ΔsoxS, reporter plasmid: acrABp",2.52 ± 1.1
same,growth,"68.6 µg/ml, genetic background: ΔsoxS, reporter plasmid: marRABp",2.95 ± 0.57
same,growth,"68.6 µg/ml, genetic background: ΔsoxS, reporter plasmid: micFp",1.85 ± 0.07
same,growth,"68.6 µg/ml, genetic background: ΔsoxS, reporter plasmid: ompFp",2.13 ± 0.32
same,growth,"68.6 µg/ml, genetic background: ΔsoxS, reporter plasmid: robp",2.71 ± 0.15
same,growth,"68.6 µg/ml, genetic background: ΔsoxS, reporter plasmid: soxSp",2.61 ± 0.67
same,growth,"68.6 µg/ml, genetic background: ΔsoxS, reporter plasmid: tolCp",2.37 ± 0.16

# Shown bar-delimited: entries from further up
smiles | measurement | setting | value
Nc1ccc(C(=O)O)cc1 [4-Aminobenzoic acid] | growth | 17.1 µg/ml, genetic background: ΔsoxS, reporter plasmid: EVC | 2.56 ± 0.33
same | growth | 17.1 µg/ml, genetic background: ΔsoxS, reporter plasmid: acrABp | 2.65 ± 0.94
same | growth | 17.1 µg/ml, genetic background: ΔsoxS, reporter plasmid: marRABp | 3.03 ± 0.53

# Rewritten bar-delimited: part of the list above
smiles | measurement | setting | value
Nc1ccc(C(=O)O)cc1 [4-Aminobenzoic acid] | growth | 34.3 µg/ml, genetic background: Δrob, reporter plasmid: robp | 2.76 ± 0.67
same | growth | 34.3 µg/ml, genetic background: Δrob, reporter plasmid: soxSp | 2.04 ± 0.37
same | growth | 34.3 µg/ml, genetic background: Δrob, reporter plasmid: tolCp | 2.39 ± 0.6
same | growth | 34.3 µg/ml, genetic background: ΔsoxS, reporter plasmid: EVC | 2.5 ± 0.12

# Already shown: entries from further up.
smiles,measurement,setting,value
Nc1ccc(C(=O)O)cc1 [4-Aminobenzoic acid],growth,"17.1 µg/ml, genetic background: ΔmarA, reporter plasmid: marRABp",3.01 ± 0.19
same,growth,"17.1 µg/ml, genetic background: ΔmarA, reporter plasmid: micFp",2.53 ± 0.2
